This is one part of the list.
What was measured:
Assay in all cases: log2 fold change, soluble protein after heating vs DMSO (PISA); higher = thermal stabilisation; K562 lysate, 10 uM; active = over 0.2 and 3.5 SD of the protein, either way, in both replicates (recomputed)
lapatinib = compound: CS(=O)(=O)CCNCc1ccc(-c2ccc3ncnc(Nc4ccc(OCc5cccc(F)c5)c(Cl)c4)c3c2)o1 [lapatinib]
In short: (§1)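 K562 pellets were dounce-homogenised in PBS pH 7.4 with 1 mM MgCl2, and the crude extract at 1 mg/mL protein was treated with 10 μM compound for 30 min. Aliquots were heated for 3 min across 48°C-58°C, pooled, and brought to 0.5% NP-40 at 4°C; soluble protein was the supernatant after 21,000xg for 90 min. Soluble protein was quantified by TMTpro 16plex LC-MS/MS with channel sums equalised, and reported as log2 fold change in thermal stability against DMSO controls, with values from duplicates.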

Sequences of proteins named here, by UniProt entry; tags and fusion partners are left off. A change or cut given only in a name is not applied to a line headed by its entry.
UniProt O00429, whole entry, looked up: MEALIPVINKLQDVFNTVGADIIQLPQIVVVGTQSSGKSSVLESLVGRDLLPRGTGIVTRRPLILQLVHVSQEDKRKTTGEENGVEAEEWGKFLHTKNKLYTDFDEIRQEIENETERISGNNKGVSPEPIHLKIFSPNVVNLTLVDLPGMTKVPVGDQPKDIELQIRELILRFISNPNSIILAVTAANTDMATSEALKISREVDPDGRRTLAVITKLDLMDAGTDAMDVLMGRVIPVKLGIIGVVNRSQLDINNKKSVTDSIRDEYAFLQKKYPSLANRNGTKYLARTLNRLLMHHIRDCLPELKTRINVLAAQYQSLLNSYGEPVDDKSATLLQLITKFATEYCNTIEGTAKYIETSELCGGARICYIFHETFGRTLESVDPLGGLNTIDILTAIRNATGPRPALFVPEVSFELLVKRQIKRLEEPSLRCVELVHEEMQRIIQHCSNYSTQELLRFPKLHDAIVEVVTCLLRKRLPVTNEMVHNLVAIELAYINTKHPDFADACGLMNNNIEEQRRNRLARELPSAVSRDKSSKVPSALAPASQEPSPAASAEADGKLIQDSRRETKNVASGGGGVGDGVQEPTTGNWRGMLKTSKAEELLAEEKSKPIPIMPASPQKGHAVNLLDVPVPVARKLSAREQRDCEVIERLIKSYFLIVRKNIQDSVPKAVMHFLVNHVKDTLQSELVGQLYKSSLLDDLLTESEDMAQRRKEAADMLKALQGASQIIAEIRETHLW
UniProt Q96LJ7: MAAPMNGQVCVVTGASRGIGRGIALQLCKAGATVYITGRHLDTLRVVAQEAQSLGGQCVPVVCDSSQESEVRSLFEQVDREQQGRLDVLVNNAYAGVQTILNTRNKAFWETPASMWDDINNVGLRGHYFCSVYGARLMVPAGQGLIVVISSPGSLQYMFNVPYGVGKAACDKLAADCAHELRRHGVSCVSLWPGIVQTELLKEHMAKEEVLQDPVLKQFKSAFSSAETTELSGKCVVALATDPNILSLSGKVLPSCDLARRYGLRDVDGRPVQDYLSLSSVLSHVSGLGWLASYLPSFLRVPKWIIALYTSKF
UniProt Q9NSV4, whole entry, looked up: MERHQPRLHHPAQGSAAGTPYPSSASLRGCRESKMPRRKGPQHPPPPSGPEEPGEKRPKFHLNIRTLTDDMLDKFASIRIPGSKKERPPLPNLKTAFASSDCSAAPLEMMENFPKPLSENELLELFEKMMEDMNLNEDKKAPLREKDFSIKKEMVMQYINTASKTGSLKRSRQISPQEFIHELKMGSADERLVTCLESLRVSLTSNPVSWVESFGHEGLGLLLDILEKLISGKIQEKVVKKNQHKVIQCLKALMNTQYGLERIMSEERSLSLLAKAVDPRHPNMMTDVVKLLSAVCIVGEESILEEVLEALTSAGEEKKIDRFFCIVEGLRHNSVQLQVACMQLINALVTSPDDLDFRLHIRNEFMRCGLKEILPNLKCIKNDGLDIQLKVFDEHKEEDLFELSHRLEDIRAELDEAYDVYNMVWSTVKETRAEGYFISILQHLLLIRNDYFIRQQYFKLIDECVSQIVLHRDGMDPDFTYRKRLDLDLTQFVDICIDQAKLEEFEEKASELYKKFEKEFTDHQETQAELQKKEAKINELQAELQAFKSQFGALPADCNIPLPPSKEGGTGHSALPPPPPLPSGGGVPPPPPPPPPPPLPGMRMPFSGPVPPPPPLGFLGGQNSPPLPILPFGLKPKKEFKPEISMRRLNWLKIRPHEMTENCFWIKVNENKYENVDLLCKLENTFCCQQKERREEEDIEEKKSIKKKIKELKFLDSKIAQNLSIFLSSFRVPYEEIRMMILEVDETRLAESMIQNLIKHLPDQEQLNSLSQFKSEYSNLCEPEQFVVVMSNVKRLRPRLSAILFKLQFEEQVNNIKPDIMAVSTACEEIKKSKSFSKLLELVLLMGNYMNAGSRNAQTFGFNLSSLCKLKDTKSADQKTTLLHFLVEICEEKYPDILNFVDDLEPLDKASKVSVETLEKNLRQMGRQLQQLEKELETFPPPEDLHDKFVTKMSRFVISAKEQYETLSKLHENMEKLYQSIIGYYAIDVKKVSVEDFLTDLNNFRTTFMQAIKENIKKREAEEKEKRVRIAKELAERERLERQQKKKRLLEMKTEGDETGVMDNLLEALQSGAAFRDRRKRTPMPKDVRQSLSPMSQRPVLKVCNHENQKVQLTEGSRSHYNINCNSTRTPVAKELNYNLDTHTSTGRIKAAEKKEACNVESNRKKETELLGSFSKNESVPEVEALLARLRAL
UniProt Q6XZF7: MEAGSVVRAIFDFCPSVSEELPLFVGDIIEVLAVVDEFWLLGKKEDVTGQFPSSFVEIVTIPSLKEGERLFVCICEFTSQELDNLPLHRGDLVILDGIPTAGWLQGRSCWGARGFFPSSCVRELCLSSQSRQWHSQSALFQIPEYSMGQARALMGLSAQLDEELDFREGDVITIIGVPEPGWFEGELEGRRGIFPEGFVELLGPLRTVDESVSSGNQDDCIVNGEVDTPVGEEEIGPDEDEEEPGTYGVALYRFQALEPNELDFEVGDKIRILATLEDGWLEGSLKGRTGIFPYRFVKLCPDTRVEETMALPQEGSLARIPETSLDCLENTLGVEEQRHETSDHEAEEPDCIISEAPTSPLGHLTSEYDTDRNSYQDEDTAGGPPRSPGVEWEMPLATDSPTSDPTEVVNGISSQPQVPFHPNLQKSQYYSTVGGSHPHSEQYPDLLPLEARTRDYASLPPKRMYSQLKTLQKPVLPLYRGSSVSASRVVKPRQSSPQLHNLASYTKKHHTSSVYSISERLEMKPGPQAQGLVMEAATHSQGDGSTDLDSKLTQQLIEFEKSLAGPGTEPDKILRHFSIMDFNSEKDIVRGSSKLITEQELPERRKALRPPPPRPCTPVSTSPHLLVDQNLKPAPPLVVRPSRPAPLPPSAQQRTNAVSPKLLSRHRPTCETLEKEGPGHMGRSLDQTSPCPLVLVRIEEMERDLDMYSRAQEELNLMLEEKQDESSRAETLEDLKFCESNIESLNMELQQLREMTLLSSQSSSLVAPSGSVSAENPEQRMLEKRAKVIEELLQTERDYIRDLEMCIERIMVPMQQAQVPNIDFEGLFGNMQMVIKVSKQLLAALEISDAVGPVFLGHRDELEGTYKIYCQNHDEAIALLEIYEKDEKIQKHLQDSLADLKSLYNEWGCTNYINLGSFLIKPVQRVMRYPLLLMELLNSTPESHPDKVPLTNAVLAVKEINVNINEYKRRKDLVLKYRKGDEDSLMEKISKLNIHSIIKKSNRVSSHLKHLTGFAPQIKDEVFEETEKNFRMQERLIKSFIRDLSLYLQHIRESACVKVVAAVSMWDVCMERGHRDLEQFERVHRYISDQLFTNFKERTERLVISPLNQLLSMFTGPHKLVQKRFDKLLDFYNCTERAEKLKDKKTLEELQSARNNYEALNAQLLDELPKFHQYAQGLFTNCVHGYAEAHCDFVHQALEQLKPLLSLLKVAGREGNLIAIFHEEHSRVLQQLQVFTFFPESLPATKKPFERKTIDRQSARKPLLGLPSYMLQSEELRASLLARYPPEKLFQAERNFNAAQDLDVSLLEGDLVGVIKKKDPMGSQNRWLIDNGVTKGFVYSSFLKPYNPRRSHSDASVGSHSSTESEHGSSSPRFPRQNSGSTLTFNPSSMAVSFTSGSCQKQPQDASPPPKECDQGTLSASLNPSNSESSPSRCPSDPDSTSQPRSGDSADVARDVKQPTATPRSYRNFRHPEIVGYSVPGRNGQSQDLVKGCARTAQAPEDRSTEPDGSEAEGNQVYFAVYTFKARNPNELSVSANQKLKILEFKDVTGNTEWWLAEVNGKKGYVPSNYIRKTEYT
UniProt Q9Y394: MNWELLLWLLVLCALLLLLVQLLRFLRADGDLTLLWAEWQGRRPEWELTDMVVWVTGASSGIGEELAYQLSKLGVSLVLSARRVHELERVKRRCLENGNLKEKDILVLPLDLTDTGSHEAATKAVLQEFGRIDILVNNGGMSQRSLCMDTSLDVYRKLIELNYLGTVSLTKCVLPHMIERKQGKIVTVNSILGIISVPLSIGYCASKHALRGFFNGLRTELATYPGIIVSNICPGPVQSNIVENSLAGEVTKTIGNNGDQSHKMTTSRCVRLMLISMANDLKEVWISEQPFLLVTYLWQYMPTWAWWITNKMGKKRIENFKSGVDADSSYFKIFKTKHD
UniProt Q12959, whole entry, looked up: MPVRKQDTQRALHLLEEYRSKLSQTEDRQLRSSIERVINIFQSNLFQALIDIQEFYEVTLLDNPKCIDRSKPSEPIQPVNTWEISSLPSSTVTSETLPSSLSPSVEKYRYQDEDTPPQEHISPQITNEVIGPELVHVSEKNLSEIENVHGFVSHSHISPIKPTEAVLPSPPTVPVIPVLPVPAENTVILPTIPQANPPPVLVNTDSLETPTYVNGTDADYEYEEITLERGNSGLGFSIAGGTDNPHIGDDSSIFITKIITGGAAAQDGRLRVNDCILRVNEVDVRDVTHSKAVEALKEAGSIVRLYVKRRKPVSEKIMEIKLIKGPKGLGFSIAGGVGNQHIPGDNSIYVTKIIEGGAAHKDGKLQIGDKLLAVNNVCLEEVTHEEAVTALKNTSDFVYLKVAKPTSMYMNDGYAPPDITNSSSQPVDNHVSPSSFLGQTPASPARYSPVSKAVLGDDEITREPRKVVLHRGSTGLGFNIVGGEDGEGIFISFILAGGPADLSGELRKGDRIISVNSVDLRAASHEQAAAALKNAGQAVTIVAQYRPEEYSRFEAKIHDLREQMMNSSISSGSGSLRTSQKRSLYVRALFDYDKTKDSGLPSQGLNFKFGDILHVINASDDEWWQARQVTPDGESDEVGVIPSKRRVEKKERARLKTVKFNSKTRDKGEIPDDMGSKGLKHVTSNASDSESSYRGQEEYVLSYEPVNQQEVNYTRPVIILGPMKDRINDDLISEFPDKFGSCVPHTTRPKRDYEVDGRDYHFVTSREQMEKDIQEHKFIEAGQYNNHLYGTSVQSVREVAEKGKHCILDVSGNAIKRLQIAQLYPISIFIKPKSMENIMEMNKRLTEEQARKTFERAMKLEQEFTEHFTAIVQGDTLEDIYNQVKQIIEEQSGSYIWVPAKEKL
UniProt P36957: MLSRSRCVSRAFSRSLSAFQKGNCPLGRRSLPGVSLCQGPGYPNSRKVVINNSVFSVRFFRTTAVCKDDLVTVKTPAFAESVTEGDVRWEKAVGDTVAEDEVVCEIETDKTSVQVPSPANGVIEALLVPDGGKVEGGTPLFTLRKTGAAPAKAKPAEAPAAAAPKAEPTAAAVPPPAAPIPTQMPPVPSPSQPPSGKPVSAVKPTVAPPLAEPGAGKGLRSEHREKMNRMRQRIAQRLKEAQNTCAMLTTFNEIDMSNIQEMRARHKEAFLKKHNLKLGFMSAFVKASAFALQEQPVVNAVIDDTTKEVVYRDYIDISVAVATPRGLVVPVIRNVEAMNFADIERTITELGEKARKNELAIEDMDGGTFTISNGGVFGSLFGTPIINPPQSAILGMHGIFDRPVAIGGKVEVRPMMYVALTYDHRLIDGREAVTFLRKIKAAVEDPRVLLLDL
UniProt Q13574: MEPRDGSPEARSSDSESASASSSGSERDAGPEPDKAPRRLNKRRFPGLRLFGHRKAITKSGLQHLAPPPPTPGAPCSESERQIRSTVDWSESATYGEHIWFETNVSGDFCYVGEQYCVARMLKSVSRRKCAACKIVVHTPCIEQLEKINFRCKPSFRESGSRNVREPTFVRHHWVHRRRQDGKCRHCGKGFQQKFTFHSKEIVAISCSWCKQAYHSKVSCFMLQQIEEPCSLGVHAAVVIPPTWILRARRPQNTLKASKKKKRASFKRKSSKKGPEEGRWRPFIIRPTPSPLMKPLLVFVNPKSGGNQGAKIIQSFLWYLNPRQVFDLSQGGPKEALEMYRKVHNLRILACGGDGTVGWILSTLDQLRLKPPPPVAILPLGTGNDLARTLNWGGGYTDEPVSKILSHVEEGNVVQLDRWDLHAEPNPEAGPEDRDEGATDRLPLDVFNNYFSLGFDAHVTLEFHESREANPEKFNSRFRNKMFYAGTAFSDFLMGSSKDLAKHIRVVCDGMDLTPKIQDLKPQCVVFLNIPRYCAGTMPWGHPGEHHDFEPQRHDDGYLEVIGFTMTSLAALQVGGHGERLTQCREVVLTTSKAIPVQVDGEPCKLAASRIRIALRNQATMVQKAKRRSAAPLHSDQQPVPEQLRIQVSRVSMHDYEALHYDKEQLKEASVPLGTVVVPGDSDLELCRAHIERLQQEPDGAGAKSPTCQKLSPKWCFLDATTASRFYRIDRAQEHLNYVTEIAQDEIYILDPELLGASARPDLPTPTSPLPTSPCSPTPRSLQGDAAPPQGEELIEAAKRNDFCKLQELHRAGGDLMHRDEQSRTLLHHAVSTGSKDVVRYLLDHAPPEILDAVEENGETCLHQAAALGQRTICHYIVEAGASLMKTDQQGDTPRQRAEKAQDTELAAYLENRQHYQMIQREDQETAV

pictilisib = compound: CS(=O)(=O)N1CCN(Cc2cc3nc(-c4cccc5[nH]ncc45)nc(N4CCOCC4)c3s2)CC1 [pictilisib]
In short: as §1

crizotinib = compound: C[C@@H](Oc1cc(-c2cnn(C3CCNCC3)c2)cnc1N)c1c(Cl)ccc(F)c1Cl [crizotinib]
In short: as §1

[1] = compound: C[C@H](C1=CC=C(C=C1)C(=O)NC2=C3C=CNC3=NC=C2)N
In short: as §1

duvelisib = compound: C[C@H](Nc1ncnc2nc[nH]c12)c1cc2cccc(Cl)c2c(=O)n1-c1ccccc1 [duvelisib]
In short: as §1

gandotinib = compound: Cc1cc(Nc2cc(CN3CCOCC3)c3nc(C)c(Cc4ccc(Cl)cc4F)n3n2)n[nH]1 [gandotinib]
In short: as §1

tozasertib = compound: Cc1cc(Nc2cc(N3CCN(C)CC3)nc(Sc3ccc(NC(=O)C4CC4)cc3)n2)n[nH]1 [tozasertib]
In short: as §1

doramapimod = compound: Cc1ccc(-n2nc(C(C)(C)C)cc2NC(=O)Nc2ccc(OCCN3CCOCC3)c3ccccc23)cc1 [doramapimod]
In short: as §1

bafetinib = compound: Cc1ccc(NC(=O)c2ccc(CN3CC[C@H](N(C)C)C3)c(C(F)(F)F)c2)cc1Nc1nccc(-c2cncnc2)n1 [bafetinib]
In short: as §1

[2] = compound: Cc1cccc(CC(=O)N2CCc3c2ccc(-c2cn(C)c4ncnc(N)c24)c3F)n1
In short: as §1

nilotinib = compound: Cc1cn(-c2cc(NC(=O)c3ccc(C)c(Nc4nccc(-c5cccnc5)n4)c3)cc(C(F)(F)F)c2)cn1 [nilotinib]
In short: as §1

[3] = compound: Cc1nc(Nc2n[nH]c3c2CN(C(=O)N[C@H](CN(C)C)c2ccccc2)C3(C)C)c2sccc2n1
In short: as §1

dasatinib = compound: Cc1nc(Nc2ncc(C(=O)Nc3c(C)cccc3Cl)s2)cc(N2CCN(CCO)CC2)n1 [dasatinib]
In short: as §1

[4] = compound: Cc1ncc(-c2ccnc(Nc3ccc(S(C)(=O)=O)cc3)n2)n1C(C)C
In short: as §1

[5] = compound: Cn1cc(-c2ccc3c(c2)CCN3C(=O)Cc2cccc(C(F)(F)F)c2)c2c(N)ncnc21
In short: as §1

quisinostat = compound: Cn1cc(CNCC2CCN(c3ncc(C(=O)NO)cn3)CC2)c2ccccc21 [quisinostat]
In short: as §1

tipifarnib = compound: Cn1cncc1[C@@](N)(c1ccc(Cl)cc1)c1ccc2c(c1)c(-c1cccc(Cl)c1)cc(=O)n2C [tipifarnib]
In short: as §1

[6] = compound: NC(=O)Nc1cc(-c2cccc(F)c2)sc1C(=O)N[C@H]1CCCNC1
In short: as §1

[7] = compound: NC(=O)c1cnc(N[C@@H]2CCCC[C@@H]2N)nc1Nc1cccc(-n2nccn2)c1
In short: as §1

[8] = compound: NC1(c2ccc(-c3nc4ccn5c(=O)[nH]nc5c4cc3-c3ccccc3)cc2)CCC1
In short: as §1

Measured: log2 fold change

DNM1L isoform 2 (UniProt O00429)
inactive: lapatinib 0.128 | pictilisib 0.001 | crizotinib 0.11 | [1] 0.029 | duvelisib -0.03 | gandotinib -0.015 | tozasertib 0.052 | doramapimod 0.026 | bafetinib 0.077 | [2] -0.016 | nilotinib -0.16 | [3] 0.028 | dasatinib 0.053 | [4] -0.074 | [5] 0.02 | quisinostat -0.131 | tipifarnib -0.069 | [6] 0.007 | [7] 0.066 | [8] -0.073

DHRS1 (UniProt Q96LJ7)
inactive: lapatinib -0.138 | pictilisib -0.089 | crizotinib -0.014 | [1] -0.037 | gandotinib 0.099 | tozasertib -0.281 | doramapimod -0.015 | bafetinib 0.056 | [2] 0.092 | nilotinib -0.009 | [3] -0.043 | dasatinib 0.063 | [4] -0.064 | [5] -0.042 | quisinostat 0.012 | tipifarnib 0.055 | [6] -0.001 | [7] 0.033 | [8] -0.026
active: duvelisib 0.406

DIAPH3 (UniProt Q9NSV4)
inactive: lapatinib 0.068 | pictilisib 0.005 | crizotinib 0.003 | [1] 0.039 | duvelisib -0.043 | gandotinib -0.102 | tozasertib -0.017 | doramapimod 0.036 | bafetinib -0.075 | [2] 0.135 | nilotinib -0.019 | [3] 0.019 | dasatinib -0.167 | [4] -0.021 | [5] 0.029 | quisinostat -0.093 | tipifarnib -0.041 | [6] 0.057 | [7] 0.077 | [8] 0.019

DNMBP (UniProt Q6XZF7)
inactive: lapatinib -0.119 | pictilisib -0.081 | crizotinib -0.121 | [1] 0.046 | duvelisib 0.008 | gandotinib 0.009 | tozasertib -0.053 | doramapimod -0.043 | bafetinib -0.129 | [2] -0.018 | nilotinib -0.041 | [3] -0.159 | dasatinib -0.066 | [4] 0.223 | [5] 0.002 | quisinostat -0.036 | tipifarnib -0.087 | [6] 0.023 | [7] -0.026 | [8] -0.09

DNAJC10 (UniProt Q8IXB1)
inactive: lapatinib -0.009 | pictilisib 0.001 | crizotinib 0.029 | [1] 0.019 | duvelisib 0.016 | gandotinib 0.035 | tozasertib 0.006 | doramapimod -0.025 | bafetinib -0.013 | [2] 0.026 | nilotinib 0.036 | [3] 0.009 | dasatinib 0.021 | [4] 0.005 | [5] -0.007 | quisinostat 0.021 | tipifarnib 0.041 | [6] 0.012 | [7] -0.011 | [8] 0.016

DHRS7 (UniProt Q9Y394)
inactive: lapatinib 0.01 | pictilisib -0.039 | crizotinib -0.005 | [1] -0.088 | duvelisib 0.013 | gandotinib 0.057 | tozasertib -0.013 | doramapimod 0.012 | bafetinib 0.035 | [2] 0.027 | nilotinib 0.012 | [3] -0.012 | dasatinib -0.055 | [4] -0.014 | [5] -0.001 | quisinostat -0.042 | tipifarnib 0.033 | [6] -0.007 | [7] 0.015 | [8] -0.047

DNMT1 isoform 2 (UniProt P26358)
inactive: lapatinib 0.007 | pictilisib 0.012 | crizotinib 0.021 | [1] 0.017 | duvelisib 0.007 | gandotinib -0.012 | tozasertib 0.024 | doramapimod 0.001 | bafetinib 0.026 | [2] -0.044 | nilotinib -0.004 | [3] -0.02 | dasatinib 0.012 | [4] -0.026 | [5] 0.013 | quisinostat 0.042 | tipifarnib 0.024 | [6] -0.019 | [7] -0.007 | [8] 0.041

DNAJC21 isoform 3 (UniProt Q5F1R6)
inactive: lapatinib -0.022 | pictilisib -0.003 | crizotinib 0.014 | [1] 0.095 | duvelisib 0.029 | gandotinib -0.09 | tozasertib -0.046 | doramapimod 0.021 | bafetinib -0.047 | [2] -0.079 | nilotinib 0.027 | [3] 0.004 | dasatinib 0.015 | [4] -0.038 | [5] 0.03 | quisinostat 0.013 | tipifarnib 0.04 | [6] 0.02 | [7] 0.003 | [8] 0.054

DHODH (UniProt Q02127)
inactive: lapatinib -0.004 | pictilisib -0.016 | crizotinib -0.025 | [1] -0.067 | duvelisib -0.036 | gandotinib 0.064 | tozasertib 0.007 | doramapimod 0.025 | bafetinib 0.01 | [2] 0.034 | nilotinib 0.007 | [3] 0.007 | dasatinib 0.074 | [4] -0.016 | [5] 0.005 | quisinostat -0.016 | tipifarnib -0.022 | [6] -0.009 | [7] 0.008 | [8] -0.015

DLG1 isoform 2 (UniProt Q12959)
inactive: lapatinib -0.001 | pictilisib -0.007 | crizotinib -0.027 | [1] 0.022 | duvelisib -0.011 | gandotinib -0.016 | tozasertib -0.078 | doramapimod 0.001 | bafetinib 0.003 | [2] -0.012 | nilotinib -0.036 | [3] 0.026 | dasatinib -0.006 | [4] -0.042 | [5] 0.032 | quisinostat -0.027 | tipifarnib 0.058 | [6] 0.02 | [7] 0.008 | [8] -0.047

DNAH8 (UniProt Q96JB1)
inactive: lapatinib -0.134 | pictilisib -0.01 | crizotinib -0.098 | [1] -0.146 | duvelisib 0.055 | gandotinib 0.008 | tozasertib -0.05 | doramapimod -0.091 | bafetinib -0.185 | [2] 0.047 | nilotinib 0.102 | [3] -0.144 | dasatinib -0.084 | [4] -0.023 | [5] 0.065 | quisinostat -0.42 | tipifarnib -0.005 | [6] 0.041 | [7] 0.03 | [8] -0.028

DNAJC1 (UniProt Q96KC8)
active: gandotinib -0.262
inactive: lapatinib -0.057 | pictilisib 0.013 | crizotinib -0.086 | [1] 0.033 | duvelisib -0.046 | tozasertib 0.019 | doramapimod -0.117 | bafetinib 0.001 | [2] -0.064 | nilotinib -0.03 | [3] 0 | dasatinib -0.09 | [4] -0.012 | [5] 0.016 | quisinostat 0.04 | tipifarnib 0.004 | [6] 0.026 | [7] -0.028 | [8] 0.028

DNAJB4 (UniProt Q9UDY4)
inactive: lapatinib 0.002 | pictilisib 0.01 | crizotinib -0.075 | [1] -0.011 | duvelisib 0 | gandotinib 0.059 | tozasertib 0.042 | doramapimod 0.069 | bafetinib -0.044 | [2] 0.029 | nilotinib 0.002 | [3] -0.009 | dasatinib -0.019 | [4] -0.022 | [5] 0.009 | quisinostat -0.02 | tipifarnib -0.008 | [6] 0.005 | [7] 0.018 | [8] 0.039

Taken from above (2 entries):
DNAH8 (UniProt Q96JB1)
inactive: lapatinib -0.134 | pictilisib -0.01 | crizotinib -0.098 | [1] -0.146 | duvelisib 0.055 | gandotinib 0.008 | tozasertib -0.05 | doramapimod -0.091 | bafetinib -0.185 | [2] 0.047 | nilotinib 0.102 | [3] -0.144 | dasatinib -0.084 | [4] -0.023 | [5] 0.065 | quisinostat -0.42 | tipifarnib -0.005 | [6] 0.041 | [7] 0.03 | [8] -0.028

DNAJC1 (UniProt Q96KC8)
active: gandotinib -0.262
inactive: lapatinib -0.057 | pictilisib 0.013 | crizotinib -0.086 | [1] 0.033 | duvelisib -0.046 | tozasertib 0.019 | doramapimod -0.117 | bafetinib 0.001 | [2] -0.064 | nilotinib -0.03 | [3] 0 | dasatinib -0.09 | [4] -0.012 | [5] 0.016 | quisinostat 0.04 | tipifarnib 0.004 | [6] 0.026 | [7] -0.028 | [8] 0.028

More records follow.

DMXL2 isoform 3 (UniProt Q8TDJ6)
inactive: lapatinib -0.008 | pictilisib -0.138 | crizotinib -0.041 | [1] 0.001 | duvelisib -0.074 | gandotinib -0.044 | tozasertib 0.003 | doramapimod 0.06 | bafetinib -0.052 | [2] 0.003 | nilotinib -0.008 | [3] -0.021 | dasatinib -0.02 | [4] -0.031 | [5] 0.104 | quisinostat -0.05 | tipifarnib -0.037 | [6] 0.073 | [7] 0.009 | [8] -0.023

DLST (UniProt P36957)
inactive: lapatinib -0.012 | pictilisib 0 | crizotinib 0.007 | [1] -0.019 | duvelisib 0.008 | gandotinib 0.022 | tozasertib 0.04 | doramapimod 0.02 | bafetinib 0.025 | [2] 0.019 | nilotinib 0.015 | [3] 0.021 | dasatinib -0.021 | [4] -0.01 | [5] 0.037 | quisinostat -0.006 | tipifarnib 0.019 | [6] -0.023 | [7] 0.014 | [8] 0.017

DGKZ (UniProt Q13574)
inactive: lapatinib -0.004 | pictilisib 0.035 | crizotinib -0.053 | [1] 0 | duvelisib -0.021 | gandotinib 0.056 | tozasertib -0.064 | doramapimod 0 | bafetinib -0.112 | [2] -0.015 | nilotinib 0.021 | [3] -0.007 | dasatinib -0.049 | [4] -0.003 | [5] -0.058 | quisinostat 0.019 | tipifarnib 0.061 | [6] 0.005 | [7] 0.018 | [8] -0.057

From the supplement of paper PMC10849652
